For the assay, the target named is Nucleotide-binding oligomerization domain-like receptor family caspase recruitment domain-containing five (NLRC5) (mouse (endogenous in BV2)) (UniProt C3VPR6). Description: co-IP; anti-NLRC5 immunoprecipitation (magnetic beads) from extracts of BV2-shCtrl and BV2-shNlrc5 cells treated with LPS at different doses; Western blot for p-IKKα/β and IKKα/β. On the technique in general: A western blot detects proteins with antibodies after separation by electrophoresis.

Protein sequences, listed by entry. Tags and fused reporters are not part of them. Lines headed by an entry give the natural chain unless they say otherwise; changes in a name come on top.
UniProt C3VPR6: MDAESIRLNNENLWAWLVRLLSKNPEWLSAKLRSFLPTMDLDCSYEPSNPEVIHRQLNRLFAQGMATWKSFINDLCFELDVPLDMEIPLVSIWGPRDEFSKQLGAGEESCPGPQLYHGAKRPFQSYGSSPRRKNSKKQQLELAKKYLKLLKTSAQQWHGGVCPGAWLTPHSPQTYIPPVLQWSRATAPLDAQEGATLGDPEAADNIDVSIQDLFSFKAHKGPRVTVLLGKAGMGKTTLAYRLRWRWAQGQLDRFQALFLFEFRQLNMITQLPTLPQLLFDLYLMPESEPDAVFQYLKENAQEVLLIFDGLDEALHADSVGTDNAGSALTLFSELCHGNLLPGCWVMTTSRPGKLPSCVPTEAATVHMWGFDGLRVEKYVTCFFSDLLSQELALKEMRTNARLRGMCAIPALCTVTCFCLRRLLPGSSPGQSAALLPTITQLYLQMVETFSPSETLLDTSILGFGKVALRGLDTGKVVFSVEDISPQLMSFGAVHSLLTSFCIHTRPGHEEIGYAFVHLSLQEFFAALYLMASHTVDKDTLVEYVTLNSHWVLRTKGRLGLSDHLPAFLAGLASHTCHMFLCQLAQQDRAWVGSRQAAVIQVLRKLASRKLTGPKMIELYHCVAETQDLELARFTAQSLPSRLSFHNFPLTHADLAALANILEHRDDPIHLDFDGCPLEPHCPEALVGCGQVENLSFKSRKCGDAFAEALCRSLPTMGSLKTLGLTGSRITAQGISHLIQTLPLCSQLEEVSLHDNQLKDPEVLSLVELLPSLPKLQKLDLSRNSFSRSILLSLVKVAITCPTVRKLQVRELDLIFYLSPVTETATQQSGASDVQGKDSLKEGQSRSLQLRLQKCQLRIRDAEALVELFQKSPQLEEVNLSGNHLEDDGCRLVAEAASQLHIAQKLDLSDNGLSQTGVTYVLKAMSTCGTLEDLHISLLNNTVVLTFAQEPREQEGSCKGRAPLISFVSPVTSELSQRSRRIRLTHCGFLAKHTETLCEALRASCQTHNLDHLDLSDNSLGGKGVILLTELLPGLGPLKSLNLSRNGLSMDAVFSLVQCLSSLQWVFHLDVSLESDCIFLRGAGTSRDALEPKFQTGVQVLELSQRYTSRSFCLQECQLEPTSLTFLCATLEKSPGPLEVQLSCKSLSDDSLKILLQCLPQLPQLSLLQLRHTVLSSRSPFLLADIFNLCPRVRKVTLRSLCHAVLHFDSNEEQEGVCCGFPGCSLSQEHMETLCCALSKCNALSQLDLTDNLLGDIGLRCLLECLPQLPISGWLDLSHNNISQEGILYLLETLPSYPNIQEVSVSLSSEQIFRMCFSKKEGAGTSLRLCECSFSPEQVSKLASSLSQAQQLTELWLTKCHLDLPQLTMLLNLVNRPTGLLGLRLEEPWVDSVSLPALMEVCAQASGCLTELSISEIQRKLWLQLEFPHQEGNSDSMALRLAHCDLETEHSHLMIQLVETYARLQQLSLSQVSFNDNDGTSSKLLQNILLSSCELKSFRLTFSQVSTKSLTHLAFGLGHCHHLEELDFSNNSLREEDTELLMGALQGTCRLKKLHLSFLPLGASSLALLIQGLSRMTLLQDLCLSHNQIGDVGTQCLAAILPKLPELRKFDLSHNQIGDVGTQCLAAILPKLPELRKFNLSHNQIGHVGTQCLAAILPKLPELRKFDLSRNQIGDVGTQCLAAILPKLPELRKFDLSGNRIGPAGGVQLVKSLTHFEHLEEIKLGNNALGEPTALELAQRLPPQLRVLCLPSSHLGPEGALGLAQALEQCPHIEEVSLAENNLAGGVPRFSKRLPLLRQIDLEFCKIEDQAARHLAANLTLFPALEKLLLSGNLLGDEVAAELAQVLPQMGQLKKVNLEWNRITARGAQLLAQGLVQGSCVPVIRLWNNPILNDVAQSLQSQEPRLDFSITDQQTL
UniProt Q60680: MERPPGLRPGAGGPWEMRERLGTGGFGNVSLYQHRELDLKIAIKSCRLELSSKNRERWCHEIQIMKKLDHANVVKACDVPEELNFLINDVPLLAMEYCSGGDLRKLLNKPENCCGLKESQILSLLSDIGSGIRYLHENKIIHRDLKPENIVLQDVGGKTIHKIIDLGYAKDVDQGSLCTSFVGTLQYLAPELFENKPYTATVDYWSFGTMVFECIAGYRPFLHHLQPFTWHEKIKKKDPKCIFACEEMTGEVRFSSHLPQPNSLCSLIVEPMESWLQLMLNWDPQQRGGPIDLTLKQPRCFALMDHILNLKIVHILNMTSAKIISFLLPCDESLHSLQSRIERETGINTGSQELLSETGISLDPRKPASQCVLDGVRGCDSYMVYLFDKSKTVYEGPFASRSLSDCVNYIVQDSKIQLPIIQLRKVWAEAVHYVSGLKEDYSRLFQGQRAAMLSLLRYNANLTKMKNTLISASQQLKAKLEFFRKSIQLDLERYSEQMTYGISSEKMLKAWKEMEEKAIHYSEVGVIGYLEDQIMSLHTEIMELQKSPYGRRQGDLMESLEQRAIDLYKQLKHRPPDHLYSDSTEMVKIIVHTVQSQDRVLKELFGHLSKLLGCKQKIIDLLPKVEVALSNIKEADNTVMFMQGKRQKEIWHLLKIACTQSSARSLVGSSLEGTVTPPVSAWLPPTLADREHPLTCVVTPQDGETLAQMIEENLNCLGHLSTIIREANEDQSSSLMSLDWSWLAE

These are yes or no findings as the source states them, for the method shown. In cells and extracts the contact can be indirect. Some entries that bind do so weakly or less than the wild type.

Regarding “phosphorylated IKKα/β (from UniProt Q60680 1-745; O88351 1-757) (complex)”, the binding result was “binds”.

“IKKα/β (total) (from UniProt Q60680 1-745; O88351 1-757) (complex)”: the binding result is “binds”.

The values above are taken from article PMC10487775.
